Experimental data reported in patent publication US20190192485A1, “DOSAGE REGIMEN FOR THE TREATMENT OF ENDOMETRIOSIS” (MEREO BIOPHARMA 2 LIMITED, priority 2016, published 2019).
Read-outs that look alike come from different tables or passages of the source.

How the values were obtained:
aromatase [1] = molecular target: T1, aromatase (Homo sapiens, UniProt P11511); experiment: Low dose study in obese men with low testosterone, with PK/PD analyses of aromatase inhibition; format: in vivo; conditions: plasma concentration, read-out: average estimated IC50 for aromatase inhibition (converted)
T1 construct: high levels of aromatase in the adipose tissue; from tissue; host or cells: in vivo, human subjects (aromatase of adipose tissue)
T1 sequence (P11511 1-503): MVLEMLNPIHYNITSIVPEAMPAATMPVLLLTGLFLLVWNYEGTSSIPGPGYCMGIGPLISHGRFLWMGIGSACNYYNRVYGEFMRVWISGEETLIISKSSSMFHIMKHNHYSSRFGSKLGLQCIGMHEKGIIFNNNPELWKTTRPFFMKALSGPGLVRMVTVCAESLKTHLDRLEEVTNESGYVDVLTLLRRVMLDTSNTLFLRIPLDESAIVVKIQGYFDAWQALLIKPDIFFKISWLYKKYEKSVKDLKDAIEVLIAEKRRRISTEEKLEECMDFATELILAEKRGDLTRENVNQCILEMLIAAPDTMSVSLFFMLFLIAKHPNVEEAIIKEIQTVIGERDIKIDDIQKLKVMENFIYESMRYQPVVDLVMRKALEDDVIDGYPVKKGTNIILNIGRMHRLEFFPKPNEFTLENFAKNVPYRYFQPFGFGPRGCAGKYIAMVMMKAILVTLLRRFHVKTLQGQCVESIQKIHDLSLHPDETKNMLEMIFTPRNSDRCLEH
Experimental: Obese men with low testosterone levels (less than 300 ng/ml) due to the activity of the high levels of aromatase in the adipose tissue were given doses of CGP47645 starting as low as 0.003 mg and then titrated up. By inhibiting the aromatase enzyme, CGP47645 led to an increase in circulating levels by reducing the conversion of testosterone to estradiol. This study confirmed that doses of CGP47645 between 0.003 and 0.01 mg are biologically active in inhibition of aromatisation pathway as evidenced in FIG. 1.

aromatase [2] = molecular target: T1, aromatase; conditions: microsomal fraction of human placenta; read-out: IC50 for aromatase inhibition; cited from earlier work

Structure (SMILES): N#Cc1ccc(C(F)(c2ccc(C#N)cc2)n2cncn2)cc1 [CGP47645, 4,4′-[fluoro-(1-H-1,2,4-triazol-1-yl)methylene]bisbenzonitrile]
- IC50 (aromatase [1]): 0.0989 nM
- IC50 (aromatase [2]): ~6.2 nM
